Among the data in article PMC4886823 are binding values, retold here.

By UniProt entry, the sequences of proteins in these tests, tags left out.
UniProt Q6PH85: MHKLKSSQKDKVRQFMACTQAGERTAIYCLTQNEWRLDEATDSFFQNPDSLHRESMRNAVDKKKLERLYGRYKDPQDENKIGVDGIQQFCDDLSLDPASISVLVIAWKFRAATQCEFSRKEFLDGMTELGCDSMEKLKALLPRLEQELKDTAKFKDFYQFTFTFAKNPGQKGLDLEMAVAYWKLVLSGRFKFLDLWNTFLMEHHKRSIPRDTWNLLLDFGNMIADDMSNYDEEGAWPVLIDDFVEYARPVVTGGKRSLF
UniProt Q16531: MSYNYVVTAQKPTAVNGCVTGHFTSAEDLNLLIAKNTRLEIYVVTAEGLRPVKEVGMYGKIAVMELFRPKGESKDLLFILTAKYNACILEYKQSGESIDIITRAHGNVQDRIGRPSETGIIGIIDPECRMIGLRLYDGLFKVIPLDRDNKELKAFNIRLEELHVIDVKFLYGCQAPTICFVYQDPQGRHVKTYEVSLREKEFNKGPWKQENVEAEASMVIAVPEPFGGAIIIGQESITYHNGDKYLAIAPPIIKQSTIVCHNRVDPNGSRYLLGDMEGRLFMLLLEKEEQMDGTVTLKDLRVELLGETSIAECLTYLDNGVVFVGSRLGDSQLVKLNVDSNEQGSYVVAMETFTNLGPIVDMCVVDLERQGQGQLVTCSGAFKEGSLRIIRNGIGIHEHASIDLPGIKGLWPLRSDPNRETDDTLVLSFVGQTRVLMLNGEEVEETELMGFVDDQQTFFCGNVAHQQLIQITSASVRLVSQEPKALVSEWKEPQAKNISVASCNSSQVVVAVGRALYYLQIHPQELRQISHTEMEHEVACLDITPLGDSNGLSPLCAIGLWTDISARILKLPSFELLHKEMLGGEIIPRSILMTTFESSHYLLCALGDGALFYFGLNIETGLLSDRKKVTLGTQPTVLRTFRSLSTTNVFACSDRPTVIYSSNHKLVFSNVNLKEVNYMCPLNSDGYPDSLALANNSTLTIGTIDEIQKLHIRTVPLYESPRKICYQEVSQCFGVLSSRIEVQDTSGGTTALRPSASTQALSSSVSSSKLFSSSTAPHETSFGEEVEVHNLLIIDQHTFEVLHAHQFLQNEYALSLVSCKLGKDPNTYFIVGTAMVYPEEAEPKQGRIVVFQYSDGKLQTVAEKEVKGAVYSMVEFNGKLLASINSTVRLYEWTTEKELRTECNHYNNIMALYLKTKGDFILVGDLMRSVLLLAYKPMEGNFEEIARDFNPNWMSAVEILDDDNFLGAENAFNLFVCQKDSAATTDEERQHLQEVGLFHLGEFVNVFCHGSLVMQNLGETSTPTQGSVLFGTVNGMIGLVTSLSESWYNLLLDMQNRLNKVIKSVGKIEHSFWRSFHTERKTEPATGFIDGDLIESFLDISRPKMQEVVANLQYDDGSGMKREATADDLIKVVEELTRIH
UniProt Q13619: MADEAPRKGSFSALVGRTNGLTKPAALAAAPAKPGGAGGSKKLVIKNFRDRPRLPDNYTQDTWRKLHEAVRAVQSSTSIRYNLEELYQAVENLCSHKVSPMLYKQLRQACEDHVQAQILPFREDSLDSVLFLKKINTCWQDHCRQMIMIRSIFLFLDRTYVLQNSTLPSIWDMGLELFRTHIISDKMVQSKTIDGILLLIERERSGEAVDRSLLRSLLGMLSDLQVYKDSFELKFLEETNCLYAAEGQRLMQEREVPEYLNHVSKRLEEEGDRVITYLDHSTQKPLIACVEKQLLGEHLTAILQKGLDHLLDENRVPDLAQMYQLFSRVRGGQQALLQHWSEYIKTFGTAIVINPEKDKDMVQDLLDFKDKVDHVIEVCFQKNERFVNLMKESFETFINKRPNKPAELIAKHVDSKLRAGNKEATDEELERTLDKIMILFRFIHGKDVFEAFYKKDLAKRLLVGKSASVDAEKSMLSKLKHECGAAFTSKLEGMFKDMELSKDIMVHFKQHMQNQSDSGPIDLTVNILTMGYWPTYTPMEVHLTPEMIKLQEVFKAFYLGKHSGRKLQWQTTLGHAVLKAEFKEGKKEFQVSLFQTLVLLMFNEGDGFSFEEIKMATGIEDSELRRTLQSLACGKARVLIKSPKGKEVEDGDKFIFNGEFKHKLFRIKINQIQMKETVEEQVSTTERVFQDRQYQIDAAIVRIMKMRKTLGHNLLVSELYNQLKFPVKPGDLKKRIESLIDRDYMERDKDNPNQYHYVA
UniProt Q14999: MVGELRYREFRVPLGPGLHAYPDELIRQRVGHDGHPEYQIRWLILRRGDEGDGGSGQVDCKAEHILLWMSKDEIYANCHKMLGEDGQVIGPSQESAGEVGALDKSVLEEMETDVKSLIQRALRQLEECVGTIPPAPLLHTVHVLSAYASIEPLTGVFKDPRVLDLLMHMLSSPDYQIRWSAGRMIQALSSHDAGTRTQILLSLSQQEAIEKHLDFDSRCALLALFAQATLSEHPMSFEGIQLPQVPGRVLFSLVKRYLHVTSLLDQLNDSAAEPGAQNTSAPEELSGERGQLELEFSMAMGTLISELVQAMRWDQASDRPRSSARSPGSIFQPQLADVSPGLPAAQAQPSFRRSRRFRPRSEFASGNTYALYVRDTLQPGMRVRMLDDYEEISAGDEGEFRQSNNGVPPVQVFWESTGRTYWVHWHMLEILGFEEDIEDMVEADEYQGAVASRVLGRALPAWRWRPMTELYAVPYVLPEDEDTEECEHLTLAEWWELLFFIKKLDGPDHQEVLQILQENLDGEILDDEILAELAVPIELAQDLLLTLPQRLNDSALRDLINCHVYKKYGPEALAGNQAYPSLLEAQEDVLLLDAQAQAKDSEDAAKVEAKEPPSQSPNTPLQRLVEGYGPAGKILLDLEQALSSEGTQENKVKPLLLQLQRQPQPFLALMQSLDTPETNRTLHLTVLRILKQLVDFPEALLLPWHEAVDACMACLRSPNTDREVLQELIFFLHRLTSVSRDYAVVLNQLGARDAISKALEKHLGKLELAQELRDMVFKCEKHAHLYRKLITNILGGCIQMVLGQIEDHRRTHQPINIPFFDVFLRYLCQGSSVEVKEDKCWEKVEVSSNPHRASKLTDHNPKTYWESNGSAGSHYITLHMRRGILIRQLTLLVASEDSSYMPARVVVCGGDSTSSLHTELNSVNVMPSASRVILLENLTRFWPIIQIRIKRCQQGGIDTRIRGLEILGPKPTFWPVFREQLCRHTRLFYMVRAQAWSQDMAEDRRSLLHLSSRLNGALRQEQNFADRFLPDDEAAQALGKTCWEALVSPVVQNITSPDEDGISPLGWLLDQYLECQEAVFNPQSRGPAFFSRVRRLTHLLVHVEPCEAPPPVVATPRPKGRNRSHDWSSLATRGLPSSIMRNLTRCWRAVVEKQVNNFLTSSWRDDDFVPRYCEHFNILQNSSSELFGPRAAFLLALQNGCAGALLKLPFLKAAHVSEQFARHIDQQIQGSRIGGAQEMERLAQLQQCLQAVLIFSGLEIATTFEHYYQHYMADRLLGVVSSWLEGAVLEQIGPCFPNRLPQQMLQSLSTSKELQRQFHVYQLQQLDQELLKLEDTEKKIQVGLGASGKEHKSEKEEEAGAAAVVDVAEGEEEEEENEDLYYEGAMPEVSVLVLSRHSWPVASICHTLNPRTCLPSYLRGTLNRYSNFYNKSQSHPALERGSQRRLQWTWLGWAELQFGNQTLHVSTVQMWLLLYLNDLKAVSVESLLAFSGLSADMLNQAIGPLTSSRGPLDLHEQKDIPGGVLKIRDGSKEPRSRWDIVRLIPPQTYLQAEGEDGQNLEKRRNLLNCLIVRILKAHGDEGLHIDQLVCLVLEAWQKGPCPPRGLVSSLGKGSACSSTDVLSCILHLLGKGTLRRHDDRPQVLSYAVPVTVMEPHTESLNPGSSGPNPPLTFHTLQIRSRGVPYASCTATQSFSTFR
UniProt Q9UBF6: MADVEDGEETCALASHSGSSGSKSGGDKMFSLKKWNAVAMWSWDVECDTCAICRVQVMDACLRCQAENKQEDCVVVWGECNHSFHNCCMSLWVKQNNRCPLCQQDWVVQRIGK
UniProt Q8IWT3: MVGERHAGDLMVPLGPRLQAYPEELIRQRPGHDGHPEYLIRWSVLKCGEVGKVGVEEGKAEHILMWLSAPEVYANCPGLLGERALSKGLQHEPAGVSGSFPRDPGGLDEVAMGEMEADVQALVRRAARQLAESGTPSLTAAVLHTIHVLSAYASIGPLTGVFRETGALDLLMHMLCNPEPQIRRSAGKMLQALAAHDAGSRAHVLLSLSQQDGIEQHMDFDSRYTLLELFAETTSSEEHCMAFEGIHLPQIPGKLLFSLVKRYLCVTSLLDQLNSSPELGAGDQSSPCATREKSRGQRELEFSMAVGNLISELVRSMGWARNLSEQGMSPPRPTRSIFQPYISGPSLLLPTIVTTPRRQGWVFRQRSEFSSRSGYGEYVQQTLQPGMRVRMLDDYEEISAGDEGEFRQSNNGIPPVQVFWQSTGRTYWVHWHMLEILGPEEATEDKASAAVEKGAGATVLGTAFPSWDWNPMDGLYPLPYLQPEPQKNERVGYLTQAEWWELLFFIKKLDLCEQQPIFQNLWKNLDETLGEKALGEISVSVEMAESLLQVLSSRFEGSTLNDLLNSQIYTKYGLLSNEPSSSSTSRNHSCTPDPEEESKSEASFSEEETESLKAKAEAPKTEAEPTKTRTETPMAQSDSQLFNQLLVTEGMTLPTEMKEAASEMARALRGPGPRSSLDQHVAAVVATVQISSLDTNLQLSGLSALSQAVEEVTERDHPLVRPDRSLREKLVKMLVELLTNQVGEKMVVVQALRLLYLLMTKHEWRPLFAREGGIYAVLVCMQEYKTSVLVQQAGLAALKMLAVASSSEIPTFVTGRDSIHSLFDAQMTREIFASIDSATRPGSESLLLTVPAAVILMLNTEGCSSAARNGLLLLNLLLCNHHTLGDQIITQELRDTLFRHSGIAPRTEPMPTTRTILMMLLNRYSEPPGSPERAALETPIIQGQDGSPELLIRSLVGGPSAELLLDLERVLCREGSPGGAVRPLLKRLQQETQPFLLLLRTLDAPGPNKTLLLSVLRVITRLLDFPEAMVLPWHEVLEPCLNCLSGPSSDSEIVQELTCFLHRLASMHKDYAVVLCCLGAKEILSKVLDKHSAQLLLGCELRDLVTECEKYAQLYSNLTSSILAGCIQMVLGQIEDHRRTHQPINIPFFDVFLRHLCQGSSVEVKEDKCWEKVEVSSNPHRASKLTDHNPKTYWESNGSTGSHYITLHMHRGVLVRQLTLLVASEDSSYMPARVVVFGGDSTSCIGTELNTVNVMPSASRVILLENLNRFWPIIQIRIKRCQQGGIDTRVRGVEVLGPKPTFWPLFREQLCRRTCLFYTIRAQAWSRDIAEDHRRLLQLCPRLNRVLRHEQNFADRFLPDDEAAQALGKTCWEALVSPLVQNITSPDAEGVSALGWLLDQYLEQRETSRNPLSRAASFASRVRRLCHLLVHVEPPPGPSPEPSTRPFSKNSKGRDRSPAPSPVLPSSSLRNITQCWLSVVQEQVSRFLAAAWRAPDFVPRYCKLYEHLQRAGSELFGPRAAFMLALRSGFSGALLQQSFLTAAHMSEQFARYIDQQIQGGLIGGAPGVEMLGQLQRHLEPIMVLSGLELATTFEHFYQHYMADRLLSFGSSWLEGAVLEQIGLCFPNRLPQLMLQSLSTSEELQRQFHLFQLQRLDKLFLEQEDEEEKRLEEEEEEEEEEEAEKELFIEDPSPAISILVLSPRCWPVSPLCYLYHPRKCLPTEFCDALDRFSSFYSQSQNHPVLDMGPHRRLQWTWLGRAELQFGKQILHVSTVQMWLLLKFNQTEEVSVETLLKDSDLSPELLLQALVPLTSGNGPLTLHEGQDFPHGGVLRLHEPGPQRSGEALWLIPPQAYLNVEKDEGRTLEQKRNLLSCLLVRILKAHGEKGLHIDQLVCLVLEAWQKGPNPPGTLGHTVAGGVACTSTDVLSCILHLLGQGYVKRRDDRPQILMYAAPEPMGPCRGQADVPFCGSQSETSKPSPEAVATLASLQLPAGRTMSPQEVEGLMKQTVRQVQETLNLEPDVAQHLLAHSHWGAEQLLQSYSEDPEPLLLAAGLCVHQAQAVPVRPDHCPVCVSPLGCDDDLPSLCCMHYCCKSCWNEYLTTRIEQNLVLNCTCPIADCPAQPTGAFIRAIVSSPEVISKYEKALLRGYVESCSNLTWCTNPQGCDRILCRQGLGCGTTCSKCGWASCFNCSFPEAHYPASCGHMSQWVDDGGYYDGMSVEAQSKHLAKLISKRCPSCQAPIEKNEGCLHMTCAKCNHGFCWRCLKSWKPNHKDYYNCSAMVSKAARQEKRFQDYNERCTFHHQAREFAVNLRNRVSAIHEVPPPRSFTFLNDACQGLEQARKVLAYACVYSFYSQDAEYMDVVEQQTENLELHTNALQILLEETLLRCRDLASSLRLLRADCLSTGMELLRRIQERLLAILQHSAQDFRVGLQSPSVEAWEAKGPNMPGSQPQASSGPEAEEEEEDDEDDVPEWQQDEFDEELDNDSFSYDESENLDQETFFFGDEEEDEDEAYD

Assay in all cases: affinity purification with mass spectrometry; FLAG(M2)-magnetic bead immunoprecipitation from lysates of HEK-293 cells stably expressing N-terminally FLAG-tagged DCNLs; eluate trypsin-digested, Orbitrap, MaxQuant; interactors with >3 unique peptides plotted
One assay concerns the target FLAG–DCNL1 (WT) (human) (UniProt Q96GG9).
Another assay addresses FLAG–DCNL2 (WT) (human) (UniProt Q6PH85).
The next assay has as its target T1, FLAG–DCNL3 (WT) (human) (UniProt Q8IWE4).
T1 sequence: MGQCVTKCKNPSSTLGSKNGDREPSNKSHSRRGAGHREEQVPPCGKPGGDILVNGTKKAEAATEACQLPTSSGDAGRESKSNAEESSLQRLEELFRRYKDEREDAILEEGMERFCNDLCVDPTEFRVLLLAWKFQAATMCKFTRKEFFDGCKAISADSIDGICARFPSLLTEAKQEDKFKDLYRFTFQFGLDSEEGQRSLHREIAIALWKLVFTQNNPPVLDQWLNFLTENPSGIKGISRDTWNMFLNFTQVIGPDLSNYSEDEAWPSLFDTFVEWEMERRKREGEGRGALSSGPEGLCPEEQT

A further assay has as its target T2, FLAG–DCNL5 (WT) (human) (UniProt Q9BTE7).
T2 sequence: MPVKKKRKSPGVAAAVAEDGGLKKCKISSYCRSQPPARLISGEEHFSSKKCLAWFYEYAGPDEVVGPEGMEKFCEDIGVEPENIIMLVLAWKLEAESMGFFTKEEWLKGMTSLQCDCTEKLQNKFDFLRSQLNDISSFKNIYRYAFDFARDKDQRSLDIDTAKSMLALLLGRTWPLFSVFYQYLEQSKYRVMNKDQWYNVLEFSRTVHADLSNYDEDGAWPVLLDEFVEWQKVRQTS

No constants are given. Whether binding was seen depends on the method and setting. In cells and extracts the contact can be indirect. Here binding means that the protein was enriched with, or labelled near, the bait; the list need not be complete. No binding means not detected with the bait. For some of these results: Where a sequence is shown, tags or fusion partners need not be part of it.

With DDB1 (from UniProt Q16531 1-1140), the binding entry in the assay with FLAG–DCNL1 (WT) (human), with FLAG–DCNL2 (WT) (human), with FLAG–DCNL3 (WT) (human) and with FLAG–DCNL5 (WT) (human) was “binds” each time.

For Cul4A (from UniProt Q13619 1-759), the binding entry in the assay with FLAG–DCNL1 (WT) (human), with FLAG–DCNL2 (WT) (human), with FLAG–DCNL3 (WT) (human) and with FLAG–DCNL5 (WT) (human) was “binds” each time.

Take Cul4B (from UniProt Q13620 1-913): the binding result with FLAG–DCNL1 (WT) (human), with FLAG–DCNL2 (WT) (human), with FLAG–DCNL3 (WT) (human) and with FLAG–DCNL5 (WT) (human) was “binds” each time.

For Cul5 (from UniProt Q93034 1-780), the binding result in the assay with FLAG–DCNL1 (WT) (human), with FLAG–DCNL2 (WT) (human), with FLAG–DCNL3 (WT) (human) and with FLAG–DCNL5 (WT) (human) was “binds” each time.

Consider Cul7 (from UniProt Q14999 1-1698), for which the binding result in the assay with FLAG–DCNL1 (WT) (human), with FLAG–DCNL2 (WT) (human), in the assay with FLAG–DCNL3 (WT) (human) and with FLAG–DCNL5 (WT) (human) was “no binding” throughout.

RBX2 (RNF7) (from UniProt Q9UBF6 1-113): the binding entry with FLAG–DCNL1 (WT) (human), with FLAG–DCNL2 (WT) (human), with FLAG–DCNL3 (WT) (human) and with FLAG–DCNL5 (WT) (human) was “binds” throughout.

With Cul9 (from UniProt Q8IWT3 1-2517), the binding result in the assay with FLAG–DCNL1 (WT) (human), with FLAG–DCNL2 (WT) (human), with FLAG–DCNL3 (WT) (human) and with FLAG–DCNL5 (WT) (human) was “no binding” in each case.
